Experimental data from patent publication US4632934A, “Imidazole derivatives and pharmaceutical use thereof” (Kissei Pharmaceutical Co., Ltd., priority 1978, dated 1986).
Counter-ions that a name gives are not always drawn. For at least one compound, name, drawing or mass did not settle the structure.

Test system: thromboxane synthetase from human or bovine platelet microsomes
Test: inhibition of thromboxane synthetase (conversion of prostaglandin H2 into thromboxane B2)
Assay type: biochemical
Details: read-out: molar concentration producing a 50% inhibition for thromboxane synthetase

With `O=C(O)COc1ccc(Cn2ccnc2)cc1` [4-(1-imidazolylmethyl)phenoxyacetic acid hydrochloride] the IC50 was 40 nM.
